Test results from the supplement of paper PMC3334620.
Over roughly 33,000 sequences, “E-score (-0.5 to 0.5)” has its median near -0.0014; the highest 2% begin near 0.25. Some of the results follow.

Target: T1, Cad1 (UniProt P24813)
T1 sequence: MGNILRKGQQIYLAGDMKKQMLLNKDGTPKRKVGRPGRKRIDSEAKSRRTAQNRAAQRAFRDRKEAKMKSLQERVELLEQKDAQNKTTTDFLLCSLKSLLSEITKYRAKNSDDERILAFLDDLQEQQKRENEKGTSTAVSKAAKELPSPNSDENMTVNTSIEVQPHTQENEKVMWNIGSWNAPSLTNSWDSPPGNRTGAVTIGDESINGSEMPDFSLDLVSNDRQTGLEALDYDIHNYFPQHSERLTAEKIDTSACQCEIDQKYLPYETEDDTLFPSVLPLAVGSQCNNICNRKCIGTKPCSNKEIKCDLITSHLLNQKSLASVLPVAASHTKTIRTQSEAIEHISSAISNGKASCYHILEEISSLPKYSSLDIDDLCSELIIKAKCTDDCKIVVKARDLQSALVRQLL
Test: PBM E-score (8-mer binding enrichment) (E-score (-0.5 to 0.5)); higher = stronger / more preferred TF binding
Settings: protein concentration: 100 nM; construct: GST-full length
Protocol: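 Universal 'all 10-mer' protein binding microarrays (Agilent AMADID 015681) probed with GST-tagged S. cerevisiae TFs (full-length or DBD) made by in vitro transcription/translation (PURExpress), about 100-200 nM. Bound TF was detected with fluorescent anti-GST. Each ungapped 8-mer (which stands for itself and its reverse complement) is scored by the PBM enrichment score (E-score), a modified Wilcoxon-Mann-Whitney statistic from -0.5 to +0.5, computed with the Universal PBM Analysis Suite. Scale: above 0.35 generally sequence-specific binding.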

Sequence	PBM E-score
AATGTTAA	0.141
AGACCGCA	-0.157
ACTGCGAT	0.0409
CACCGACC	-0.0907
CCTTATGA	0.146
GGAGCGCA	-0.112
CAAGTTAC	0.00436
CCTTTCAG	-0.0562
GGACAGAC	0.0236
CGCGACAC	0.0904
ATAGGCGG	0.119
CGCTTCCA	0.036
GTTTGGAA	-0.0186
ATTTTACC	0.231
CGTGAGCA	-0.0633
CAATACCG	-0.0276
ACTTCTCA	0.0697
GACAGTGC	0.0176
CGAGGAAG	-0.213
AGTGCGTA	-0.0932
GAAGGATC	-0.328
ACCACGTA	-0.0327
GCGATTAA	0.123
CGTGTCAA	0.083
CAGTCCCG	-0.165

Sequence	PBM E-score
CGTGCTAG	-0.0886
GAGGCGTA	-0.0365
AACTATAT	0.176
AGTAGCTG	0.0399
AAGATTTC	0.0635
ACCATTTG	0.199
ATCATCTG	0.0139
GAACTAAA	0.0923
AGCTTGAA	0.0342
TCAGACCA	-0.062
GATGTGTA	-0.0278
CCATTGGA	0.00597
CGACGGAC	0.105
AAAATGAA	0.0129
CTTTGCGC	0.179
CATTTCGC	-0.15
ATCAAGCG	0.0519
AGATCTTA	0.1
GCGCATTA	0.265
CCGACGGC	-0.156
CGTGATGC	-0.0888
CGGGATGC	-0.137
CTTGCGCA	0.093
GTTACTCA	0.182
CCTTAACG	0.0521

Sequence	PBM E-score
AAATGCGG	0.00807
CACCACCA	0.00941
CGCTTACC	0.168
GCCACATA	0.0201
ACAATGTG	0.0639
GTTTGAAA	0.113
ACATGCGT	-0.0669
ATGACGTC	0.0734
AATTGATG	0.251
AGTTCATG	0.265
CAATCAGC	0.0656
AACAGGTT	-0.0889
CATGCGCC	0.0597
CCCAGCGC	-0.0801
AATTGCAA	0.131
CGTCATGC	-0.0851
ATCAATGG	-0.0702
AACTGAGC	-0.203
CCGATAGG	-0.00369
AGACGTGA	0.178
AGACATGG	-0.103
GTTTGTGA	-0.0375
ACGAACGA	0.0753
AGAATATC	0.0721
AGTTGATC	0.0893

Sequence	PBM E-score
ACTGCCAA	0.179
AGGAGAAT	0.0193
TTCGCAAA	0.198
AACCCCTG	-0.263
GCAACGAA	0.275
ATCTAAAC	-0.058
AAGGTCTC	-0.109
TGAAACCA	-0.00097
CGCCATGA	0.159
TACTGTAA	0.0474
ATTGTCTC	0.0923
ACGACTGA	-0.203
AGTAGGCG	0.0214
CTATAGTA	0.165
CAACTCGA	0.175
CACGCGCA	0.0196
AATAGCTG	0.0055
GGTGGGAA	-0.0423
CCTCCGCC	-0.134
ATTTCAAA	0.137
ACCCTCAA	-0.222
GGGACCCA	-0.12
AATTTCCG	0.24
ATATCAGG	0.00611
ATCCTTGA	0.0576

Sequence	PBM E-score
CGAGATGC	-0.0402
CCTCCCAG	-0.346
CACAACGC	-0.0182
AGGCCGTG	0.0557
AAGTAATT	0.2
ATTATTTC	0.2
AGCATACA	0.0414
GGTAGCAC	-0.264
GTTTCGGA	0.0462
GAATGCGA	0.064
CTATCCAG	-0.0759
AGTAGCTA	0.0332
GAGAGAGC	-0.283
CGGCCGAA	0.203
CGGTGGAG	-0.0566
CTCAAGCC	-0.0462
GGGATCAA	0.0428
GACGGACA	0.0727
AGCCTTAT	0.0233
CATACCCA	-0.0323
AGGGGACG	-0.189
AAGCCCTT	-0.0922
CTGGTTCA	0.0573
CATTTATA	0.021
CGACACTA	-0.0495

Sequence	PBM E-score
AGAACAAC	-0.0123
GCCGTGGA	-0.222
AATTGAAG	-0.0835
AGAAGCGC	0.0594
ACTAGGAG	-0.121
TAGAAAGA	-0.1
GACGCAGC	0.0821
AATAGGAG	-0.229
AAGTGTAG	0.0989
CGGTCCGA	-0.0178
ACTCTTAC	0.242
CCGGTCGC	-0.0192
GCCCAGAC	-0.201
CCTGAAAA	0.00612
ATAGTGAT	0.126
GTGTACGA	0.069
ACAAGCAC	-0.0733
AAAAAGTG	0.0064
GCGCCCTA	-0.141
AGATTTGA	0.088
AGTCTTGC	-0.0173
ATCTTTCA	0.122
GGGGTTCA	-0.191
AGTCCAAC	-0.0448
AATAAGTA	0.138

Sequence	PBM E-score
ATGTTAGG	-0.00995
AGAAGTCT	-0.0724
GAGATTCC	0.0821
AATCTTCC	-0.15
ACACAAGA	0.114
CTACATTA	-0.0325
CACAAACA	0.104
AGAACACC	0.0932
CCATTAGA	-0.17
ATCTAATG	-0.0144
GAGTCCCA	-0.00076
ATTACGAC	0.0723
CCCGTTCC	-0.171
AAACTTAA	0.171
AGTTAGGG	-0.0104
ATAACAGA	0.0752
ACCGACTG	-0.0999
AACAAAAC	0.231
TACCGGCA	0.116
AAATCCTT	-0.0766
AGGGTTGA	-0.0586
CACCGGTC	-0.333

Quoted from above for reference:
Sequence	PBM E-score
ACACAAGA	0.114
CTACATTA	-0.0325
CACAAACA	0.104
AGAACACC	0.0932

As entered above:
ATAACAGA – PBM E-score: 0.0752
AGGGTTGA – PBM E-score: -0.0586
CTACATTA – PBM E-score: -0.0325
GAGTCCCA – PBM E-score: -0.00076
ATTACGAC – PBM E-score: 0.0723
CACCGGTC – PBM E-score: -0.333
